The text below walks through data of article PMC11905121.

Chains of the proteins cited; added tags and fusions are not shown. Residues count along the entry.
UniProt Q8R4B8: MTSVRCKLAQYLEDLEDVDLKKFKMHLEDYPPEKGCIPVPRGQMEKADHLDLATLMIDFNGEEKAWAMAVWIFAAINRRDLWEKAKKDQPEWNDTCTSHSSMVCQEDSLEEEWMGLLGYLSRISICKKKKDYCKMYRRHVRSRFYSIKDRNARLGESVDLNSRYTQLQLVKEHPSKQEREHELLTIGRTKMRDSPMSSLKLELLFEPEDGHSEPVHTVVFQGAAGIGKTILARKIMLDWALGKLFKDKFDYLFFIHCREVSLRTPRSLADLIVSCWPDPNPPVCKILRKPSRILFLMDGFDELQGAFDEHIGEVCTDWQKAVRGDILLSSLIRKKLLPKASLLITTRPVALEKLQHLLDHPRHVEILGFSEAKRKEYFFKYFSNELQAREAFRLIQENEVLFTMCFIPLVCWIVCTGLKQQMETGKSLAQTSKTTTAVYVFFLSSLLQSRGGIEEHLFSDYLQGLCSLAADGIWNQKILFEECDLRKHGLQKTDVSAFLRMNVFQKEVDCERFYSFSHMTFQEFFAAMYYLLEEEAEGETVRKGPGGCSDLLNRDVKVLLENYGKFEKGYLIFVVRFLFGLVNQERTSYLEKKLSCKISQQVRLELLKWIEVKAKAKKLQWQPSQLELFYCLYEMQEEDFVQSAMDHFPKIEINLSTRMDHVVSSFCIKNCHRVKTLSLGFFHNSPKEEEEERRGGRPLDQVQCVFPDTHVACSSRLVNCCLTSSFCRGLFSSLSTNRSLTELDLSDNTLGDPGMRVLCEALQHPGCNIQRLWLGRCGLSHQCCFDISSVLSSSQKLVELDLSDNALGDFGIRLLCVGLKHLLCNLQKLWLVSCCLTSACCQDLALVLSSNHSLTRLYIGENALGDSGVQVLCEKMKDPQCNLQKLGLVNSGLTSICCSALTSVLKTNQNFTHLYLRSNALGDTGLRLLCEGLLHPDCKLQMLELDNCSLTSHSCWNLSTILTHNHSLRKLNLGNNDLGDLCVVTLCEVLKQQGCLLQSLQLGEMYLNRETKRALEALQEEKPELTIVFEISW
UniProt P48759, residues 18-381: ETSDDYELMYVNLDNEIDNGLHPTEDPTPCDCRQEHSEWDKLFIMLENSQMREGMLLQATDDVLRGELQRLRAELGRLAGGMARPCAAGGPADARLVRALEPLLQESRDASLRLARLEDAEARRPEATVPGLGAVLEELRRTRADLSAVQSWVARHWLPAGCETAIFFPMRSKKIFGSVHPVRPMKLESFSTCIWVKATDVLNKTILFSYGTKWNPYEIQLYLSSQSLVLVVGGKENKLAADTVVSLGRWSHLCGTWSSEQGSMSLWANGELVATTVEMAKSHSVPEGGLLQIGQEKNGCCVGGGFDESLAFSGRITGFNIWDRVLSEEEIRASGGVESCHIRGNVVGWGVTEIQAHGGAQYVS

The target in this test is NLRP3 (mouse (endogenous in primary mouse cardiomyocytes)) (UniProt Q8R4B8). Kind of test: co-IP; cell lysates prepared with a Co-immunoprecipitation Kit (abs955, Absin), pre-cleared; specific primary antibody against the target protein, IgG as control; precipitate analysed by Western blotting; bait not stated. For orientation: In western blotting, separated proteins are transferred to a membrane and probed.

No constants are given. Whether binding was seen depends on the method and setting. Binding seen in cells or lysates may run through a third protein. Some binding calls cover weakened binding; strength is not graded here.

“PTX3 (Pentaxin 3) (from UniProt P48759 18-381)”: the binding entry is recorded as “binds”.
